Experimental data published in patent US7279497B2, “Benzopyran derivatives substituted with secondary amines including imidazole, their preparation and pharmaceutical compositions containing them” (Korea Research Institute of Chemical Technology, priority 2002, dated 2007).
Some of these results come from one statement about several compounds together.

Tested on: SPF SD rats
Conditions: single oral dose
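Further: Six-week-old animals, two per group, followed across an observation period.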

Compound | hematology, serum chemistry parameters and macroscopic observation
COC(OC)[C@@]1(C)Oc2ccc([N+](=O)[O-])cc2[C@@H](N(Cc2ncc[nH]2)c2ccc(C)cc2C)[C@@H]1O [Example 9, (2S,3S,4R)-3,4-dihydro-2-dimethoxymethyl-3-hydroxy-2-methyl-6-nitro-4-[N-(2,4-dimethylphenyl)-N-(1H-imidazol-2-ylmethyl)amino]-2H-1-benzopyran] | no drug-related changes were observed
COC(OC)[C@@]1(C)Oc2ccc(N)cc2[C@@H](N(Cc2ncc[nH]2)c2ccc(Br)cc2)[C@@H]1O [Example 36, (2S,3S,4R)-6-amino-3,4-dihydro-2-dimethoxymethyl-3-hydroxy-2-methyl-4-[N-(4-bromophenyl)-N-(1H-imidazol-2-ylmethyl)amino]-2H-1-benzopyran] | no drug-related changes were observed
COC(OC)[C@@]1(C)Oc2ccc([N+](=O)[O-])cc2[C@@H](N(Cc2ncc[nH]2)c2ccc(Br)cc2)[C@@H]1O [Example 8, (2S,3S,4R)-3,4-dihydro-2-dimethoxymethyl-3-hydroxy-2-methyl-6-nitro-4-[N-(4-bromophenyl)-N-(1H-imidazol-2-ylmethyl)amino]-2H-1-benzopyran] | no drug-related changes were observed
COc1ccc(N(Cc2ncc[nH]2)[C@@H]2c3cc(N)ccc3O[C@](C)(C(OC)OC)[C@H]2O)cc1 [Example 32, (2S,3S,4R)-6-amino-3,4-dihydro-2-dimethoxymethyl-3-hydroxy-2-methyl-4-[N-(4-methoxyphenyl)-N-(1H-imidazol-2-ylmethyl)amino]-2H-1-benzopyran] | no drug-related changes were observed
COC(OC)[C@]1(C)Oc2ccc([N+](=O)[O-])cc2[C@H](N(Cc2ncc[nH]2)c2ccc(OC(F)(F)F)cc2)[C@H]1O [Example 21, (2R,3R,4S)-3,4-dihydro-2-dimethoxymethyl-3-hydroxy-2-methyl-6-nitro-4-[N-(4-trifluoromethoxyphenyl)-N-(1H-imidazol-2-ylmethyl)amino]-2H-1-benzopyran] | no drug-related changes were observed
COC(OC)[C@@]1(C)Oc2ccc([N+](=O)[O-])cc2[C@@H](N(Cc2ncc[nH]2)c2ccc(C(F)(F)F)cc2)[C@@H]1O [Example 5, (2S,3S,4R)-3,4-dihydro-2-dimethoxymethyl-3-hydroxy-2-methyl-6-nitro-4-[N-(4-trifluoromethylphenyl)-N-(1H-imidazol-2-ylmethyl)amino]-2H-1-benzopyran] | no drug-related changes were observed
COC(OC)[C@]1(C)Oc2ccc([N+](=O)[O-])cc2[C@H](N(Cc2ncc[nH]2)c2cccc(C)c2C)[C@H]1O [Example 12, (2R,3R,4S)-3,4-dihydro-2-dimethoxymethyl-3-hydroxy-2-methyl-6-nitro-4-[N-(2,3-dimethylphenyl)-N-(1H-imidazol-2-ylmethyl)amino]-2H-1-benzopyran] | no drug-related changes were observed
COc1ccc(N(Cc2ncc[nH]2)[C@H]2c3cc(N)ccc3O[C@@](C)(C(OC)OC)[C@@H]2O)cc1 [Example 28, (2R,3R,4S)-6-amino-3,4-dihydro-2-dimethoxymethyl-3-hydroxy-2-methyl-4-[N-(4-methoxyphenyl)-N-(1H-imidazol-2-ylmethyl)amino]-2H-1-benzopyran] | no drug-related changes were observed
COc1ccccc1N(Cc1ncc[nH]1)[C@H]1c2cc([N+](=O)[O-])ccc2O[C@@](C)(C(OC)OC)[C@@H]1O [Example 18, (2R,3R,4S)-3,4-dihydro-2-dimethoxymethyl-3-hydroxy-2-methyl-6-nitro-4-[N-(2-methoxyphenyl)-N-(1H-imidazol-2-ylmethyl)amino]-2H-1-benzopyran] | no drug-related changes were observed
